Source: US20150353614
For some of these results: Tags and fusion partners may be left off the protein sequences shown. For some of these results: For at least one entry, the source does not settle the construct or the ends of the probe.

Legend:
[1] = system: IA (Idi-AraC DBD chimera) (Escherichia coli); assay: EMSA; settings: 0-10 nM IA, 20 nM DNA, 100 mM KCl, pH 7.4, RT; shifted band weaker with 10 uM IPP; purified recombinant protein; label: Cy5
[2] = system: IA (Idi-AraC DBD chimera) (Escherichia coli); assay: activity in cells; settings: no mevalonate, protein in cells, variant of I1I2 in PBAD, only the site is given
[3] = target: T1, AC (AraC linker and DNA-binding domain) (Escherichia coli) (UniProt P0A9E0); assay: activity in cells; settings: PBAD, no inducer; 0.11 with 10 mM mevalonate; normalized to IA; protein in cells; only the site is given
T1 sequence (looked up, limits assumed): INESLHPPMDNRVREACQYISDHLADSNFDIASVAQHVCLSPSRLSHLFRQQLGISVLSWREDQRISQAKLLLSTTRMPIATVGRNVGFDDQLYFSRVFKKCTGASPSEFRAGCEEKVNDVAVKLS

Sequence: TAGCATTTTTATCCATAAGATTAGCGGATCCTACCTGA (double strand) [I1I2]
- binding result [1]: binds

Sequence: TAGCATTTTTATCCATAAGATTAGCATTTTTATCCATA (double strand) [I1I1 in PBAD]
- activity on this sequence ([2]; 0.13 with 10 mM mevalonate): 0.1 relative RFP

Sequence: TAGCATTTTTATCCATAAGATTAGCGGATCCTACCTGA (double strand) [I1I2 in PBAD]
- activity on this sequence [3]: 0.19 relative RFP

Sequence: TAGCGGATCCTACCTGAAGATTAGCGGATCCTACCTGA (double strand) [I2I2 in PBAD]
- activity on this sequence ([2]; 0.11 with 10 mM mevalonate): 0.14 relative RFP
